The values that follow come from article PMC7507032.

By UniProt entry, the sequences of proteins in these tests, tags left out. Where a name states a change or a piece, a line headed by the entry shows the natural chain unless it says otherwise. Residues count along the entry.
UniProt Q04206: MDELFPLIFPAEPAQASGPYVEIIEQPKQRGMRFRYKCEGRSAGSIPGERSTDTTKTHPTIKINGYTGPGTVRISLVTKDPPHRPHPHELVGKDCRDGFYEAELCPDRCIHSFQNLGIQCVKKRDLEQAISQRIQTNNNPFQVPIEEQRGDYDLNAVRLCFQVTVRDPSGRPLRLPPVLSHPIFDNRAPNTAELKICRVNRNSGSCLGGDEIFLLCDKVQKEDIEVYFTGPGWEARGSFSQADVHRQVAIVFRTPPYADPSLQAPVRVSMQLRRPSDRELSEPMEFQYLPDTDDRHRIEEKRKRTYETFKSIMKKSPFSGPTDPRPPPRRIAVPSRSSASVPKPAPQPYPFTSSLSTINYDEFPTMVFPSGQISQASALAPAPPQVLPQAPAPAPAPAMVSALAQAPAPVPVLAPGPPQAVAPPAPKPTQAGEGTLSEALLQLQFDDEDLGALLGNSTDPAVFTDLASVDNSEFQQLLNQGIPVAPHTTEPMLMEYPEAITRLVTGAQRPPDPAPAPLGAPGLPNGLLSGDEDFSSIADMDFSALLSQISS
GST-RELA-N: residues 19-306 of Q04206

Test [1] concerns the target T1, 3Flag-TEX10 region 1 (R1, A.A. 1-235) (UniProt Q9NXF1).
T1 sequence: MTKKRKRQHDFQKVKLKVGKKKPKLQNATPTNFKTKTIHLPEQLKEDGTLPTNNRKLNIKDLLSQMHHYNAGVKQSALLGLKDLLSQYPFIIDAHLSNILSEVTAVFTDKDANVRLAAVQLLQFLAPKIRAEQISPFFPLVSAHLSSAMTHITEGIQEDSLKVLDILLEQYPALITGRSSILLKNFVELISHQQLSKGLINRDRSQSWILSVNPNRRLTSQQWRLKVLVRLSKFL
As to the kind of experiment: co-IP; HEK293T cells cotransfected with 3Flag-tagged TEX10 or TEX10 truncations and Myc-RELA; lysates immunoprecipitated with anti-Flag, immunoblot with anti-Myc and anti-Flag.

Test [2] has as its target T2, 3Flag-TEX10 region 2 (R2, A.A. 236-681) (UniProt Q9NXF1).
T2 sequence: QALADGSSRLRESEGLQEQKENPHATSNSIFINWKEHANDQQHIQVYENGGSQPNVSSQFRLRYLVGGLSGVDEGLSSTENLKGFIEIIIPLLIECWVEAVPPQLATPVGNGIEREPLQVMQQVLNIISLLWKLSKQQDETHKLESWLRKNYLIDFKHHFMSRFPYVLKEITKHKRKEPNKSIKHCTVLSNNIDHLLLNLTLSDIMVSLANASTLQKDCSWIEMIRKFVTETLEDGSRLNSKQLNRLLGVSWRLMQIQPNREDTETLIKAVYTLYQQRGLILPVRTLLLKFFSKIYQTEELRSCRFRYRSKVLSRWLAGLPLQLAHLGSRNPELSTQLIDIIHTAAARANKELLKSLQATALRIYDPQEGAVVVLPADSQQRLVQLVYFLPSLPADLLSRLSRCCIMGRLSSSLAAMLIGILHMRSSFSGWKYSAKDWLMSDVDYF
The description is as above.

A further test has as its target T3, 3Flag-TEX10, full length (UniProt Q9NXF1).
T3 sequence: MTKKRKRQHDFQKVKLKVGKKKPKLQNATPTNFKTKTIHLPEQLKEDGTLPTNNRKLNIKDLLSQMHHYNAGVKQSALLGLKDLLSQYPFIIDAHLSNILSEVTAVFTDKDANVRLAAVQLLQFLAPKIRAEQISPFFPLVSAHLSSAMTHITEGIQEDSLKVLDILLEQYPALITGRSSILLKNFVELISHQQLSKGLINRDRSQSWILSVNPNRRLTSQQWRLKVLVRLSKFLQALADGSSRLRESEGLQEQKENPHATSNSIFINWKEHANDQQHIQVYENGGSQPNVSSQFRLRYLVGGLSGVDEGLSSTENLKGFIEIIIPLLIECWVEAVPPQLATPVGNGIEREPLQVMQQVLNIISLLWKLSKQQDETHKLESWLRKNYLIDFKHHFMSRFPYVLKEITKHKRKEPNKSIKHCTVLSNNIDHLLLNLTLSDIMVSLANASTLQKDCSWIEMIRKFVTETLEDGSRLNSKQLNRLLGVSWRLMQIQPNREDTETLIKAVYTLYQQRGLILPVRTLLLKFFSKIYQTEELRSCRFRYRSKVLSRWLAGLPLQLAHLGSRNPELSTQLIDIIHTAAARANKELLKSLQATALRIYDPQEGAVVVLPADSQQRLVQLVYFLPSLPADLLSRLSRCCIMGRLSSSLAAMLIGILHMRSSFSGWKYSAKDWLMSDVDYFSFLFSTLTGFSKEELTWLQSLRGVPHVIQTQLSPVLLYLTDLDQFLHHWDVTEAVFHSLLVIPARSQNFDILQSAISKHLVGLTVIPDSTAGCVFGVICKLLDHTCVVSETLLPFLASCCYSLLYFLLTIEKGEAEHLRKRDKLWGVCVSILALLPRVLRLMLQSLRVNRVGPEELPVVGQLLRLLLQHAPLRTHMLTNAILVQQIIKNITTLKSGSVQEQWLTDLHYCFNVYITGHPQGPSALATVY
The description is as above.

Test [3] has as its target T4, 3Flag-TEX10 region 3 (R3, A.A. 682-929) (UniProt Q9NXF1).
T4 sequence: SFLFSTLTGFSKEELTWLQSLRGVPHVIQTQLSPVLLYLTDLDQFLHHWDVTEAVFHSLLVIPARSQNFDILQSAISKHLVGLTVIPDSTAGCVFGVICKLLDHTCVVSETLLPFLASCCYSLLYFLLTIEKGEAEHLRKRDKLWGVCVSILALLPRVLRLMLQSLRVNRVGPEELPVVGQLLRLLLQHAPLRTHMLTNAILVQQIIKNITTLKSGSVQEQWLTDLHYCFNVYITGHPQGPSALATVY
Described as above.

For test [4], the target named is T5, Myc-TEX10 (testis expressed 10) (UniProt Q9NXF1).
T5 sequence: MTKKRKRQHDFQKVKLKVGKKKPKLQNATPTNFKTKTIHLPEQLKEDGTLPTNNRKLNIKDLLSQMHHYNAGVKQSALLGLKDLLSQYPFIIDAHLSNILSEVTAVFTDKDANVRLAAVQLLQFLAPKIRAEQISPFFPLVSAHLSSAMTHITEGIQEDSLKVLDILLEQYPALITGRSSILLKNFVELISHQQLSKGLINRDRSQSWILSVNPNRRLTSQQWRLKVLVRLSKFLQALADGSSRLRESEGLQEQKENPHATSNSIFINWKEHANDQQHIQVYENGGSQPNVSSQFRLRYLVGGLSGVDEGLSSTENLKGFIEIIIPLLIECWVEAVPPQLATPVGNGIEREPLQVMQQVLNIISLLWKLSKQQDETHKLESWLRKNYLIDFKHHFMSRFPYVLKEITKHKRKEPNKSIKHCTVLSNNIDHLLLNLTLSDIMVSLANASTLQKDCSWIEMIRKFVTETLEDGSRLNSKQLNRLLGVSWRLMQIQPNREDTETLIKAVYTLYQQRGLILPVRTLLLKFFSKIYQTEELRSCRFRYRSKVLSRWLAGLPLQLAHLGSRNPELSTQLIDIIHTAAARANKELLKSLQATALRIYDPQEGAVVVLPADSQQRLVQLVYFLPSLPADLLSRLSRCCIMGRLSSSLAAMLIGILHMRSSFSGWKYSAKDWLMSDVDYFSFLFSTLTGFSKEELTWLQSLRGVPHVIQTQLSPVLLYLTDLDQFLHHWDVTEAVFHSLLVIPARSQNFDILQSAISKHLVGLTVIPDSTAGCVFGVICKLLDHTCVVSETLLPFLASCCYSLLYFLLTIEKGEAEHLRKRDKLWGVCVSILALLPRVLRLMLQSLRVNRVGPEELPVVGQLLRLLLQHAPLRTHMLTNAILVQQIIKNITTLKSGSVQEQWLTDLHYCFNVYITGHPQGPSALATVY
As to the kind of experiment: co-IP; HEK293T cells cotransfected with Flag-tagged proteins and Myc-TEX10; lysates immunoprecipitated with anti-Myc, immunoblot with anti-Flag and anti-Myc; antibody 1 h at 4 °C, protein G beads overnight.

Test [5] deals with T6, TEX10, endogenous (human (endogenous in HCT116 and DLD1)) (UniProt Q9NXF1).
T6 sequence: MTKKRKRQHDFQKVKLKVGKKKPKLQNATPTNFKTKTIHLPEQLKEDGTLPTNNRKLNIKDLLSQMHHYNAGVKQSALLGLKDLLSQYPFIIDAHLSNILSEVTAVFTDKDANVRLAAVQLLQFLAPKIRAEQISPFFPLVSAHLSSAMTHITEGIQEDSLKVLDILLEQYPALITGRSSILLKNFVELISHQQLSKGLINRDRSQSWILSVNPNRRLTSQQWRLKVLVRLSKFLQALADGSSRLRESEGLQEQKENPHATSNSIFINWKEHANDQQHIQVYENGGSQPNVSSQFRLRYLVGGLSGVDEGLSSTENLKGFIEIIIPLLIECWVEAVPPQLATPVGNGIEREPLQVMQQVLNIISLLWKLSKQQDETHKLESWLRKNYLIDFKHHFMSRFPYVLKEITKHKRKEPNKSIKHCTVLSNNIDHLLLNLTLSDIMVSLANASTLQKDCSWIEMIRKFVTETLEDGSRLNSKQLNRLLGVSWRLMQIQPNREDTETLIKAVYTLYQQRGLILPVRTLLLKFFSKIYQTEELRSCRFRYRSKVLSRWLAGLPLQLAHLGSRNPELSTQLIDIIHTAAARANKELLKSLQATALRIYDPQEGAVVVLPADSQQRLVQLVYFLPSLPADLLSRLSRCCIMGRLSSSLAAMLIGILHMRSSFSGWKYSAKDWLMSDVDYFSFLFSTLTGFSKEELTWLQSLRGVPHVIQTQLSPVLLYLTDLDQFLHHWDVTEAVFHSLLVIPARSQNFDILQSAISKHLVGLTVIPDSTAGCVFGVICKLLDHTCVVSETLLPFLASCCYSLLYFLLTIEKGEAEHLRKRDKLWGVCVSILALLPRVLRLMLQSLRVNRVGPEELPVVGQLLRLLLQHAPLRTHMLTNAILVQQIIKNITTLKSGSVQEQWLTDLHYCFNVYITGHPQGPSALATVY
Briefly: co-IP; endogenous proteins; HCT116 and DLD1 lysates immunoprecipitated with IgG or anti-TEX10, immunoblot with anti-RELA and anti-TEX10. In general terms: A western blot detects proteins with antibodies after separation by electrophoresis.

The next test has as its target GST-RELA-N (UniProt Q04206). Briefly: pull-down; GST pull-down: in vitro translated Myc-TEX10 incubated with GST proteins (from E. coli BL21) overnight, analysed by immunoblot; only the target purified.

These are yes or no findings as the source states them, for the method shown. In cells and extracts the contact can be indirect. Some entries that bind do so weakly or less than the wild type. For part of these data: Tags and fused reporters may be left off the sequences shown.

With Myc-RELA (from UniProt Q04206 1-551), the binding entry in test [1] is given as “binds”; in test [2] it was “binds”; with 3Flag-TEX10, full length, “binds”; in test [3] it was “binds”.
For the molecule “Flag-RELA-N (Rel homology domain only) (from UniProt Q04206 19-306) (domain or fragment)”, the binding result in test [4] is “binds”.
Take “RELA, endogenous (from UniProt Q04206 1-551)”: the binding entry in test [5] is listed as “binds”.
For the molecule Flag-RELA (from UniProt Q04206 1-551), the binding entry in test [4] is “binds”.

B1: Myc-TEX10, in vitro translated (protein, UniProt Q9NXF1 1-929)
chain: MTKKRKRQHDFQKVKLKVGKKKPKLQNATPTNFKTKTIHLPEQLKEDGTLPTNNRKLNIKDLLSQMHHYNAGVKQSALLGLKDLLSQYPFIIDAHLSNILSEVTAVFTDKDANVRLAAVQLLQFLAPKIRAEQISPFFPLVSAHLSSAMTHITEGIQEDSLKVLDILLEQYPALITGRSSILLKNFVELISHQQLSKGLINRDRSQSWILSVNPNRRLTSQQWRLKVLVRLSKFLQALADGSSRLRESEGLQEQKENPHATSNSIFINWKEHANDQQHIQVYENGGSQPNVSSQFRLRYLVGGLSGVDEGLSSTENLKGFIEIIIPLLIECWVEAVPPQLATPVGNGIEREPLQVMQQVLNIISLLWKLSKQQDETHKLESWLRKNYLIDFKHHFMSRFPYVLKEITKHKRKEPNKSIKHCTVLSNNIDHLLLNLTLSDIMVSLANASTLQKDCSWIEMIRKFVTETLEDGSRLNSKQLNRLLGVSWRLMQIQPNREDTETLIKAVYTLYQQRGLILPVRTLLLKFFSKIYQTEELRSCRFRYRSKVLSRWLAGLPLQLAHLGSRNPELSTQLIDIIHTAAARANKELLKSLQATALRIYDPQEGAVVVLPADSQQRLVQLVYFLPSLPADLLSRLSRCCIMGRLSSSLAAMLIGILHMRSSFSGWKYSAKDWLMSDVDYFSFLFSTLTGFSKEELTWLQSLRGVPHVIQTQLSPVLLYLTDLDQFLHHWDVTEAVFHSLLVIPARSQNFDILQSAISKHLVGLTVIPDSTAGCVFGVICKLLDHTCVVSETLLPFLASCCYSLLYFLLTIEKGEAEHLRKRDKLWGVCVSILALLPRVLRLMLQSLRVNRVGPEELPVVGQLLRLLLQHAPLRTHMLTNAILVQQIIKNITTLKSGSVQEQWLTDLHYCFNVYITGHPQGPSALATVY
B1: the binding result with GST-RELA-N is given as “binds”.

B2: Flag-p52 (protein, UniProt Q00653 1-454)
chain: MESCYNPGLDGIIEYDDFKLNSSIVEPKEPAPETADGPYLVIVEQPKQRGFRFRYGCEGPSHGGLPGASSEKGRKTYPTVKICNYEGPAKIEVDLVTHSDPPRAHAHSLVGKQCSELGICAVSVGPKDMTAQFNNLGVLHVTKKNMMGTMIQKLQRQRLRSRPQGLTEAEQRELEQEAKELKKVMDLSIVRLRFSAFLRASDGSFSLPLKPVISQPIHDSKSPGASNLKISRMDKTAGSVRGGDEVYLLCDKVQKDDIEVRFYEDDENGWQAFGDFSPTDVHKQYAIVFRTPPYHKMKIERPVTVFLQLKRKRGGDVSDSKQFTYYPLVEDKEEVQRKRRKALPTFSQPFGGGSHMGGGSGGAAGGYGGAGGGGSLGFFPSSLAYSPYQSGAGPMGCYPGGGGGAQMAATVPSRDSGEEAAEPSAPSRTPQCEPQAPEMLQRAREYNARLFGLA
On to B2, for which, in test [4], the binding entry is reported as “binds”.
